# Laboratory results published in article PMC12431657, “Discovery and mechanistic insights of dibenzoylmethane as a broad spectrum inhibitor of coronavirus” (PLOS Pathogens, 2025).
# Where a name gives a salt, the structure may show the parent alone. Read-outs that look alike come from different tables or passages of the source. Out of some 3,300 compounds screened, about 60 (2%) showed an effect of 50% or more. Some of the results follow.
# Test system: HCoV-OC43
# Design: species or system RD; HTS, protection from HCoV-OC43 induced cell death, luminescent cell viability (CellCounting-Lite 2.0), inhibition rate
# Conditions: 24 h post infection, 1 h compound pre-incubation, 10 µM, inhibitor
Compound,OC43 Inhibition rate [%],"OC43 Inhibition rate (OC43 Inhibition rate, 24 h) [%]"
CC(C)=CCC/C(C)=C/CC/C(C)=C/CC/C(C)=C/CO [Geranylgeraniol],44.1,
O=C(O)CCCCC1CCSS1 (stereo not drawn) [α-Lipoic Acid],0.7,
COc1cc(/C=C/c2cc(O)cc(O)c2)ccc1O [Isorhapontigenin],0.2,
C[C@H]1[C@H](C)CC[C@]2(C(=O)O)CC[C@]3(C)C(=CC[C@@H]4[C@@]5(C)CC[C@@H](O)C(C)(C)[C@@H]5CC[C@]43C)[C@H]12 [3-Epiursolic Acid],-1.3,
O=C(/C=C/C=C/c1ccc2c(c1)OCO2)N1CCCCC1 [Piperine],14.7,
O=c1c2ccccc2nc2n1CCc1c-2[nH]c2ccccc12 [Rutaecarpine],2.9,
C[C@@H]1O[C@@H](OC[C@H]2O[C@@H](Oc3c(-c4ccc(O)cc4)oc4cc(O)cc(O)c4c3=O)[C@H](O)[C@@H](O)[C@@H]2O)[C@H](O)[C@H](O)[C@H]1O [Nicotiflorin],-0.2,
O=C(O)c1ccco1 [2-Furoic acid],3.6,
CC(C)[C@H](N)C(=O)O [L-Valine],-0.6,
CC(=O)O[C@@H]1C[C@@H]2CC[C@@]1(C)C2(C)C [(-)-Bornyl acetate],0.5,
OC[C@H]1O[C@@](CO)(O[C@H]2O[C@H](CO)[C@@H](O)[C@H](O)[C@H]2O)[C@@H](O[C@H]2O[C@H](CO)[C@@H](O)[C@H](O)[C@H]2O)[C@@H]1O [D-(+)-Melezitose],0.9,
C[S+]([O-])CC[C@H](N)C(=O)O (some centres unmarked) [Methionine sulfoxide],,2.3
COc1ccc([C@H]2O[C@@H](c3ccc(OC)c(OC)c3)[C@H](C)[C@H]2C)cc1OC [Veraguensin],19.7,
CC1(C)[C@H](C(=O)O)CC[C@]1(C)C(=O)O [(-)-Camphoric acid],-0.3,
COc1ccc(-c2cc(=O)c3c(O)c(OC)c(O)cc3o2)cc1 [Pectolinarigenin],13.3,
COc1ccc2c(c1)OC[C@@H](c1cc(O)c(OC)c(OC)c1O)C2 [Colutehydroquinone],2.6,
CC1OCCC1=O (centres unmarked) [2-Methyltetrahydrofuran-3-one],0.2,
C[C@H](CCC(=O)O)[C@H]1CC[C@H]2[C@@H]3[C@H](O)C[C@@H]4C[C@H](O)CC[C@]4(C)[C@H]3C[C@H](O)[C@]12C [Cholic acid (sodium)],,-0.3
O=C(O)C[C@H](C(=O)O)[C@H]1c2c(cc(O)c(O)c2O)C(=O)O[C@@H]1C(=O)O [Chebulic acid],-0.4,

# Quoted from the results shown (four entries):
Compound,OC43 Inhibition rate [%],"OC43 Inhibition rate (OC43 Inhibition rate, 24 h) [%]"
C[C@@H]1O[C@@H](OC[C@H]2O[C@@H](Oc3c(-c4ccc(O)cc4)oc4cc(O)cc(O)c4c3=O)[C@H](O)[C@@H](O)[C@@H]2O)[C@H](O)[C@H](O)[C@H]1O [Nicotiflorin],-0.2,
O=C(O)c1ccco1 [2-Furoic acid],3.6,
CC(C)[C@H](N)C(=O)O [L-Valine],-0.6,
CC(=O)O[C@@H]1C[C@@H]2CC[C@@]1(C)C2(C)C [(-)-Bornyl acetate],0.5,

# Remaining list, next part:

Compound,OC43 Inhibition rate [%],"OC43 Inhibition rate (OC43 Inhibition rate, 24 h) [%]"
"C[C@H](O)[C@H](O)C1=Nc2c(nc(N)[nH]c2=O)NC1 [7,8-Dihydro-L-biopterin]",-1.3,
CC(=O)O[C@H]1CC[C@]2(C)[C@H]3CC=C4[C@@H]5[C@@H](C)[C@H](C)CC[C@]5(C(=O)O)CC[C@@]4(C)[C@]3(C)CC[C@H]2C1(C)C [Ursolic acid acetate],19.4,
COc1cc2c(cc1OC)[C@H]1Cc3ccc(OC)c(OC)c3CN1CC2 [D-Tetrahydropalmatine],2,
COc1ccc(-c2cc(=O)c3c(OC)c(OC)c(OC)cc3o2)cc1OC [Sinensetin],5,
CC(C)=CCC/C(C)=C/Cc1c(O)c(CC=C(C)C)c2c(c1O)C(=O)C1=C[C@@H]3C[C@H]4C(C)(C)O[C@@](C/C=C(/C)C(=O)O)(C3=O)[C@@]14O2 [Gambogenic acid],-2.2,
C[C@H](CCC(=O)O)[C@H]1CC[C@H]2[C@@H]3[C@H](O)C[C@@H]4C[C@H](O)CC[C@]4(C)[C@H]3C[C@H](O)[C@]12C [Cholic acid],,1.6
COc1ccc(CCO[C@@H]2O[C@H](CO[C@@H]3O[C@H](CO)[C@H](O)[C@H](O)[C@H]3O)[C@@H](OC(=O)/C=C/c3ccc(O)c(OC)c3)[C@H](O[C@@H]3O[C@@H](C)[C@H](O)[C@@H](O)[C@H]3O)[C@H]2O)cc1O [Jionoside B1],-0.2,
COc1cc2c(cc1OC)-c1c(C)c3ccc(OC)c(OC)c3c[n+]1CC2 [Dehydrocorydaline (chloride)],,0.6
CCCCCCCCCCCCCCCCCCCCC [Heneicosane],-0.3,
CC(C)=CCc1cc2c(cc1O)oc(=O)c1c3ccc(O)cc3oc21 [Psoralidin],0,
Cc1nc2ccccc2o1 [2-Methylbenzoxazole],-0.1,
C[C@H](CCC(=O)O)[C@H]1CC[C@H]2[C@@H]3CC[C@@H]4C[C@H](O)CC[C@]4(C)[C@H]3CC[C@]12C [Lithocholic acid],1.2,
O=C(O)/C=C/c1cnc[nH]1 [Urocanic acid],-0.3,
COc1cc(C[C@@H](C)[C@@H](C)Cc2ccc(O)c(OC)c2)ccc1O [Dihydroguaiaretic acid],0.8,
C=C1CC[C@H]2O[C@]2(C)CC[C@@H]2[C@@H]1CC2(C)C [Caryophyllene oxide],-0.3,
O=C(O)CCCC[C@@H]1SC[C@@H]2NC(=O)N[C@@H]21 [Biotin],0,
COc1c2c(cc3oc(C)cc(=O)c13)O[C@H](C(C)(C)O)C2 [5-O-Methylvisamminol],1.8,
CC1(C)CC[C@]2(C(=O)O)[C@H](O)C[C@]3(C)C(=CC[C@@H]4[C@@]5(C)CC[C@H](O)[C@@](C)(C=O)[C@@H]5CC[C@]43C)[C@@H]2C1 [Quillaic acid],0.8,
COc1ccc(C[C@@H]2COc3c(C)c(O)c(C)c(O)c3C2=O)cc1 [Methylophiopogonanone B],-2.7,
NCCc1ccc(O)cc1 [Tyramine],-0.5,

Compound,OC43 Inhibition rate [%],"OC43 Inhibition rate (OC43 Inhibition rate, 24 h) [%]"
COc1ccc(/C=C/C(=O)c2ccc(OC)c3c2OC(C)(C)C=C3)cc1 [Millepachine],23.1,
Nc1ncnc2c1ncn2[C@@H]1O[C@H](CO)[C@@H](O)[C@H]1OP(=O)(O)O [Adenosine-2'-monophosphate],0.6,
CC1(C)CCC2=C(O1)c1ccccc1C(=O)C2=O [β-Lapachone],-1.8,
CC(C)(O)[C@H]1CC[C@@](C)([C@H]2[C@@H](O)C[C@@]3(C)[C@@H]4C[C@H](O)[C@H]5C(C)(C)[C@@H](O)CC[C@@]56C[C@@]46CC[C@]23C)O1 [Cyclogalegenin],8.4,
CC(C)=CCC[C@@](C)(O)[C@H]1CC[C@]2(C)[C@@H]1[C@H](O)C[C@@H]1[C@@]3(C)C[C@@H](O)[C@H](O[C@@H]4O[C@H](CO)[C@@H](O)[C@H](O)[C@H]4O[C@@H]4O[C@H](CO)[C@@H](O)[C@H](O)[C@H]4O)C(C)(C)[C@@H]3CC[C@]12C [Gypenoside LI],0,
CC[C@H](O)C(=O)O [(S)-2-Hydroxybutanoic acid],0,
CCCCCCCCCCCCCCCCCCCCC(=O)O [Heneicosanoic acid],0,
CC(=O)O[C@@]12CO[C@@H]1C[C@@H](O)[C@@]1(C)C(=O)[C@H](O)C3=C(C)[C@@H](OC(=O)[C@H](O)[C@@H](NC(=O)c4ccccc4)c4ccccc4)C[C@@](O)([C@@H](OC(=O)c4ccccc4)[C@H]21)C3(C)C [7-Epi 10-desacetyl paclitaxel],0.2,
C/C=C/c1ccc(OC)c(OC)c1 [Methyl isoeugenol],-3.3,
C[C@@H]1O[C@@H](O[C@H]2[C@H](Oc3c(-c4ccc(O)cc4)oc4cc(O)cc(O)c4c3=O)O[C@H](CO)[C@@H](O)[C@@H]2O)[C@H](O)[C@H](O)[C@H]1O [Kaempferol 3-neohesperidoside],1.4,
CC1(C)CC[C@]2(C(=O)O)CC[C@]3(C)C(=CC[C@@H]4[C@@]5(C)C[C@H](O)[C@H](O)[C@@](C)(C(=O)O)[C@@H]5CC[C@]43C)[C@@H]2C1 [Medicagenic acid],-0.5,
COc1cc(/C=C/C(=O)CC(=O)/C=C/c2ccc(O)c(OC)c2)ccc1O [Curcumin],-0.2,
O=C1CCCCO1 [Tetrahydro-2H-pyran-2-one],-0.5,
C[C@H](CC[C@@H](O[C@@H]1O[C@H](CO)[C@@H](O)[C@H](O)[C@H]1O)C(C)(C)O)[C@H]1CC[C@@]2(C)[C@@H]3CC=C4[C@@H](CC[C@H](O[C@@H]5O[C@H](CO)[C@@H](O)[C@H](O)[C@H]5O)C4(C)C)[C@]3(C)[C@H](O)C[C@]12C [Mogroside IIe],-0.2,
O=C(O)C1CCCCN1O (centres unmarked) [N-Hydroxypipecolic acid],-0.7,
O=C(O)c1ccc(CO)o1 [5-Hydroxymethyl-2-furancarboxylic acid],-1.1,
O=C(O)CCCC(=O)C(=O)O [Oxoadipic acid],1.6,
O=C(O)CC1CCCCC1 [Cyclohexaneacetic acid],1.3,
C/C=C(\C)C(=O)O[C@H]1[C@H](OC(C)=O)[C@]2(CO)[C@H](O)C[C@]3(C)C(=CC[C@@H]4[C@@]5(C)CC[C@H](O[C@@H]6O[C@H](C(=O)O)[C@@H](O[C@@H]7O[C@H](CO)[C@@H](O)[C@H](O)[C@H]7O)[C@H](O)[C@H]6O[C@@H]6O[C@H](CO)[C@@H](O)[C@H](O)[C@H]6O)[C@](C)(CO)[C@@H]5CC[C@]43C)[C@@H]2CC1(C)C [Escin IA],1.1,
